From paper doi:10.1101/2023.04.28.538690
Results are given in words; binding and its absence hold for the method and conditions named. For some of these results: Binding seen in cells or lysates may run through a third protein. Some entries that bind do so weakly or less than the wild type. Tags and fused reporters may be left off the sequences shown.

T1: SPINDLY (SPY), full-length, yeast two-hybrid bait (BD) (Arabidopsis thaliana) (UniProt Q96301)
T1 sequence: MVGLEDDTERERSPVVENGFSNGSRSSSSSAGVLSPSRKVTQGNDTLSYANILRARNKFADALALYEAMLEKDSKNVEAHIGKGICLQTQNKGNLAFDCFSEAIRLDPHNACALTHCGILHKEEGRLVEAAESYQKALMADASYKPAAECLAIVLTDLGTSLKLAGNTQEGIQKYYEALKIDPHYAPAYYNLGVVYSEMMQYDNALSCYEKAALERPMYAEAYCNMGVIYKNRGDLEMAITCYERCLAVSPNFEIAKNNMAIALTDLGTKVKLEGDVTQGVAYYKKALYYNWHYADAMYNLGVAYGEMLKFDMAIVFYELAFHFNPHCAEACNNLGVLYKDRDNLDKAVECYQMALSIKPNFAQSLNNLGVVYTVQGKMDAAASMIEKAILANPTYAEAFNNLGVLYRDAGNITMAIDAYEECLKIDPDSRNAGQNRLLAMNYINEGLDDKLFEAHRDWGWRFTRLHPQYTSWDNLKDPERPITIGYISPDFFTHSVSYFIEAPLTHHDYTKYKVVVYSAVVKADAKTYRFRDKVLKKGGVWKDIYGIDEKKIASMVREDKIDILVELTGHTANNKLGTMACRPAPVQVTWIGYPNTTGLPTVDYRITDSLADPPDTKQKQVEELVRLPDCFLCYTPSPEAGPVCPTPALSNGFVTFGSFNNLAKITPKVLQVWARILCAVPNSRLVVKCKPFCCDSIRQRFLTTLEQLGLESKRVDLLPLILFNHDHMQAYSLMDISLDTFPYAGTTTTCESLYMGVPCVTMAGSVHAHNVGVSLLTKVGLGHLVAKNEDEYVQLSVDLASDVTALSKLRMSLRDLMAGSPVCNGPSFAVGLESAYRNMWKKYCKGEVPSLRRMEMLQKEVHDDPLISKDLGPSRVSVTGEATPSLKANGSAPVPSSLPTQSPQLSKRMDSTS

T2: SECRET AGENT (SEC), full-length, yeast two-hybrid bait (BD) (Arabidopsis thaliana) (UniProt Q9M8Y0)
T2 sequence: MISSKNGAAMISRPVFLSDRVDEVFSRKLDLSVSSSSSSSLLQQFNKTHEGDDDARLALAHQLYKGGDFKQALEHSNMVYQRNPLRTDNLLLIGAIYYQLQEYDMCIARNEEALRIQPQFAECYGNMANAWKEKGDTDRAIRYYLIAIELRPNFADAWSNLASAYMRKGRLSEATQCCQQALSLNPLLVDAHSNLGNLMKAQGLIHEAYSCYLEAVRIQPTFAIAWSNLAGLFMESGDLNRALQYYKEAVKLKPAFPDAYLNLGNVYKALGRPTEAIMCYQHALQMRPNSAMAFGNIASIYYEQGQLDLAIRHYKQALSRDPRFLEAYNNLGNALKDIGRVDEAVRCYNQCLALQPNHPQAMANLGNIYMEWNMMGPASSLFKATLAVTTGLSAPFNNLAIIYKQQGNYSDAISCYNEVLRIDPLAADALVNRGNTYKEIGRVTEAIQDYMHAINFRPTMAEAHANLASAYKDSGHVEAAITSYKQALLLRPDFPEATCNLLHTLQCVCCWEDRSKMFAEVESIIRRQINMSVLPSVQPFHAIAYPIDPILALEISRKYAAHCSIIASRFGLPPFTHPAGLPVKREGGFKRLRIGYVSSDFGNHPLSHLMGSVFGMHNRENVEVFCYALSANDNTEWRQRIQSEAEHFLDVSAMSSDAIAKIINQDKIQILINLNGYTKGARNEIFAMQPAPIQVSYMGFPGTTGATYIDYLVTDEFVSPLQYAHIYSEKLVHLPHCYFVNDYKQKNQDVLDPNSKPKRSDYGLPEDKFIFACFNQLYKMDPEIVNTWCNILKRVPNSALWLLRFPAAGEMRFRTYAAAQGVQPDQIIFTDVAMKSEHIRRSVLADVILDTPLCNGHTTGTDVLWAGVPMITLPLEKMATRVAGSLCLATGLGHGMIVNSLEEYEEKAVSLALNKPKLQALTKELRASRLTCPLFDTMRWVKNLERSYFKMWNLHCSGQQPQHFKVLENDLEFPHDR

T3: SECRET AGENT (SEC) fused to the C-terminal luciferase fragment (35S::SEC-Cluc) (Arabidopsis thaliana) (UniProt Q9M8Y0)
T3 sequence: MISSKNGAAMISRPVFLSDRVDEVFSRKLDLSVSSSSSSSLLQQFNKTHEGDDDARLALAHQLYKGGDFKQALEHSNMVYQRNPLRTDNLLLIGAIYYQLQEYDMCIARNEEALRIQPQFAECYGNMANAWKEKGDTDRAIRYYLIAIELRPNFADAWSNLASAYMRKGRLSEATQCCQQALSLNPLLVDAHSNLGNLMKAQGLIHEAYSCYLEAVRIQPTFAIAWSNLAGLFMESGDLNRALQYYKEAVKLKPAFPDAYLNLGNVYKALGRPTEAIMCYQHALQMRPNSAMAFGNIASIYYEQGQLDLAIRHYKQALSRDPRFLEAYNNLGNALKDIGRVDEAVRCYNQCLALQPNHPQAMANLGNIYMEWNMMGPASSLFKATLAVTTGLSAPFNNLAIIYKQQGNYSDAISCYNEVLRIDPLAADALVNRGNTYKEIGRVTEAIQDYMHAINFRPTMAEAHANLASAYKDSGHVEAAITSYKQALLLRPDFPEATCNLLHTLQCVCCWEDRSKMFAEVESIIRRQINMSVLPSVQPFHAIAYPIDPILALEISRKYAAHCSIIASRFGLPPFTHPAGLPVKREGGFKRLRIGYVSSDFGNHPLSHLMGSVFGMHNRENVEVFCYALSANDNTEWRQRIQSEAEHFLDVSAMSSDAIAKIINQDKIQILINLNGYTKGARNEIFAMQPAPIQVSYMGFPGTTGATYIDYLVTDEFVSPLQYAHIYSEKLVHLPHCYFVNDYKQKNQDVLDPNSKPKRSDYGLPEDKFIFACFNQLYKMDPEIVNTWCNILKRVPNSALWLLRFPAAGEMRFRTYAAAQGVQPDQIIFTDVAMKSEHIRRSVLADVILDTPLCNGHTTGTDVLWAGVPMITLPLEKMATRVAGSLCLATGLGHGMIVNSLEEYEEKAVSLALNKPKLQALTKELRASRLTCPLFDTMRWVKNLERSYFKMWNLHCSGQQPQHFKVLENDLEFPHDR

T4: SPINDLY (SPY) fused to the C-terminal luciferase fragment (35S::SPY-Cluc) (Arabidopsis thaliana) (UniProt Q96301)
T4 sequence: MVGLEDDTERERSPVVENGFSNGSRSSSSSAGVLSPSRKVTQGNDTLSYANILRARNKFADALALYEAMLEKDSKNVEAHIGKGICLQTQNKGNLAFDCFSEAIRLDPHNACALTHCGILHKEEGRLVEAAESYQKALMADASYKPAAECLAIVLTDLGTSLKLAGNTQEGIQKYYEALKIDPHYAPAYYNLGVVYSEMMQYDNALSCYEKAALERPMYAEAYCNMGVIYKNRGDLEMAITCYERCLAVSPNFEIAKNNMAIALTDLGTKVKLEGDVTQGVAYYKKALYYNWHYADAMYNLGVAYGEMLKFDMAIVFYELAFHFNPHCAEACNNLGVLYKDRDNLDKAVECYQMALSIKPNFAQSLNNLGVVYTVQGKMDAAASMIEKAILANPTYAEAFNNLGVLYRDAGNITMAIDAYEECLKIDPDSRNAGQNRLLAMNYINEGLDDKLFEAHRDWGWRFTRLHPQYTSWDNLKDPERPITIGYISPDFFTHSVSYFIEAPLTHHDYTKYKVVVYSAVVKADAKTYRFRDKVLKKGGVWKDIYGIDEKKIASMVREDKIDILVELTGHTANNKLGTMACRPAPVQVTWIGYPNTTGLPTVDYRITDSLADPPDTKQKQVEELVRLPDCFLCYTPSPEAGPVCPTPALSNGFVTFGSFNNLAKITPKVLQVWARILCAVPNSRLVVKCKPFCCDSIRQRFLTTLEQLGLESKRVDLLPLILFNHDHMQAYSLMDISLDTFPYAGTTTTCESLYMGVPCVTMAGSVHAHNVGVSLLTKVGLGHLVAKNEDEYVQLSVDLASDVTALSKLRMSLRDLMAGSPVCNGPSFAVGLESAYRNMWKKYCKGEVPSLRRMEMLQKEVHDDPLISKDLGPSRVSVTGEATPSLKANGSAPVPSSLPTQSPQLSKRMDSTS


Legend:
[1] = biological target: T1, SPINDLY (SPY), full-length, yeast two-hybrid bait (BD) (Arabidopsis thaliana); assay: two-hybrid
[2] = biological target: T2, SECRET AGENT (SEC), full-length, yeast two-hybrid bait (BD) (Arabidopsis thaliana); assay: two-hybrid
[3] = biological target: T3, SECRET AGENT (SEC) fused to the C-terminal luciferase fragment (35S::SEC-Cluc) (Arabidopsis thaliana); assay: split reporter
[4] = biological target: T4, SPINDLY (SPY) fused to the C-terminal luciferase fragment (35S::SPY-Cluc) (Arabidopsis thaliana); assay: split reporter

Row | binding [1] | binding [2] | binding [3] | binding [4] | Binder
1 | binds | binds | – | – | SPATULA (SPT), full-length, yeast two-hybrid prey (AD) (protein, UniProt Q9FUA4 1-373) MISQREEREEKKQRVMGDKKLISSSSSSSVYDTRINHHLHHPPSSSDEISQFLRHIFDRSSPLPSYYSPATTTTTASLIGVHGSGDPHADNSRSLVSHHPPSDSVLMSKRVGDFSEVLIGGGSGSAAACFGFSGGGNNNNVQGNSSGTRVSSSSVGASGNETDEYDCESEEGGEAVVDEAPSSKSGPSSRSSSKRCRAAEVHNLSEKRRRSRINEKMKALQSLIPNSNKTDKASMLDEAIEYLKQLQLQVQMLTMRNGINLHPLCLPGTTLHPLQLSQIRPPEATNDPLLNHTNQFASTSNAPEMINTVASSYALEPSIRSHFGPFPLLTSPVEMSREGGLTHPRLNIGHSNANITGEQALFDGQPDLKDRIT
2 | – | – | binds | binds | SPATULA (SPT) fused to the N-terminal luciferase fragment (35S::SPT-Nluc) (protein, UniProt Q9FUA4 1-373) MISQREEREEKKQRVMGDKKLISSSSSSSVYDTRINHHLHHPPSSSDEISQFLRHIFDRSSPLPSYYSPATTTTTASLIGVHGSGDPHADNSRSLVSHHPPSDSVLMSKRVGDFSEVLIGGGSGSAAACFGFSGGGNNNNVQGNSSGTRVSSSSVGASGNETDEYDCESEEGGEAVVDEAPSSKSGPSSRSSSKRCRAAEVHNLSEKRRRSRINEKMKALQSLIPNSNKTDKASMLDEAIEYLKQLQLQVQMLTMRNGINLHPLCLPGTTLHPLQLSQIRPPEATNDPLLNHTNQFASTSNAPEMINTVASSYALEPSIRSHFGPFPLLTSPVEMSREGGLTHPRLNIGHSNANITGEQALFDGQPDLKDRIT
